From patent US20170210823A1 (YEDA RESEARCH AND DEVELOPMENT, published 2017)
Results are given in words; binding and its absence hold for the method and conditions named. Some results given as binding are weak or reduced against the parent protein; the word gives no strength.

Target: T1, human LOXL2 (full length enzyme) (human, UniProt Q9Y4K0 26-774)
T1 construct: also called lysyl-oxidase like protein-2
T1 sequence: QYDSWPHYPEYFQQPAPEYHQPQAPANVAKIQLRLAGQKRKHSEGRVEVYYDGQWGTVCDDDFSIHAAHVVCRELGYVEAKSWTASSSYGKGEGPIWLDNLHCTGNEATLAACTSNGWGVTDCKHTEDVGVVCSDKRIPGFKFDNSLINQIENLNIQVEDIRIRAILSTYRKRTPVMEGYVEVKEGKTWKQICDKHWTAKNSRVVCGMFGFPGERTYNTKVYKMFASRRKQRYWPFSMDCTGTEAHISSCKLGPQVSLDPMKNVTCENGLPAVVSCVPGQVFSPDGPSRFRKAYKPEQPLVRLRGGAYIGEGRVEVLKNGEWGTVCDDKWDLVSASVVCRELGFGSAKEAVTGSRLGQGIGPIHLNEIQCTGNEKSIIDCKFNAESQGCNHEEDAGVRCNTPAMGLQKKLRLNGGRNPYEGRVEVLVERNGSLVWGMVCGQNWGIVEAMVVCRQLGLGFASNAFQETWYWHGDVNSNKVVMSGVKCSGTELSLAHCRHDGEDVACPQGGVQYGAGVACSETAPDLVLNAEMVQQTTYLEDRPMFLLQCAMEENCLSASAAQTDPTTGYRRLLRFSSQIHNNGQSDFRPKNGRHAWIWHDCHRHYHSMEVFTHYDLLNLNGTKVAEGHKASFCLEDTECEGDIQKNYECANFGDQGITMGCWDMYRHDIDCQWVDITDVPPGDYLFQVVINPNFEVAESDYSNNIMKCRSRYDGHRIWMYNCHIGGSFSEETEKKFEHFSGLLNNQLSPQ
Test: microscale thermophoresis in solution; x axis printed as [LOXL2], nM; LOXL2 construct not specified on the sheet or in the legend

binding: binds
B1: GS341 antibody (antibody, V domains shown)
VH: QVQLQQPGAELVRPGASVKLSCKASGYSFTNYWMSWVKQRPGQGLEWIGMIHPSDTDIRLHQKFKDKATLTVDKSSSTAYVQLSSPTSEDSAVYYCARGGQLGPWFAYWGQGTLVTVSA
VL: DIVMTQSPASLAVSLGQRATISCRASKSVSTSGYSYMHWYQQKPGQPPKLLIYLASNLESGVPARFSGSGSGTFTLNIHPVEEEDAATYYCQHSRELPWTFGGGTKLEIKR
notes: also called A341; ab341
